# From the supplement of paper PMC8728848
# The other results are listed elsewhere or left out.
# B1: Blon0732mut (Bifidobacterium longum) (protein)
# chain: MPTSEHKADDATRHLTLIPAPVTLEYTHGTALIGPLVTIEDADQSWETLPIEQLSDELRHRYGVTVLRRRTHGTVISLGLDSRLAHDEYTLDVSESEGIRVRGGGESGLRYGLQTLRQIIGQTSRAIPCLHIQDKPAFAVRAYSLDVTRGRVPTMEFLTWFVDQLALYKYNQFQLYVEHAFAFVELSEAWRGTDPLTAADITYLDEYCARRGIELVPSLATFGHMYMNLRTREHRGLGEFPEDADRPFSFIERMEHHTLNAADPKAHDFASRLIEEYAPLFRSKSFNIGGNETFDLGRGRSAQDAPEAGRDELYAGFVRDLCETLARHGRQPMLWADIALESPRTMDLLPGDITMLNWMYEPQIDESKIQTIATQGRRQFVCPAVRAWSRFFPDYAGAWLNTYHMALAGTKYDAEGMVVTDWGDYGHVNDPRLSVPGLCYGAQNAWNPIEIDAHEMNRRISALVYGDESGRIMDCLARIDSDGVSFPWDLAVQVLELEYGSGTGALNMDVAACMERSSGGKLTLDRTLGCDDARRRMLQWNRERIERRRDCDQVLRDCGDAFAGLDKGGLTAEFLSVMLDGQRLFNELGEELLALADGKDVGSGANRLAADLELWFERYRAQWLSVGRHAELARIAHVVWSLADILRRGAL
# Tests used:
# Assay in all cases: glycan array binding signal (z-score within array); higher = stronger binding
# Details in all cases: glycan notation: IUPAC condensed, linker removed
# [1] = target: Gal3S(b1-4)Glc6S
# Summary of the method: (§1)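 Arrays were curated from the Consortium for Functional Glycomics database, 3228 in total, and kept only where the protein sequence was available. Binding is expressed as a within-array Z-score. This score was averaged across arrays of the same protein sequence at different concentrations or buffers and across linkers, and negative values can be read as non-binding.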
# [2] = target: Gal3S(b1-4)GlcNAc
# Summary of the method: as §1
# [3] = target: Gal3S(b1-4)[Fuc(a1-3)]Glc6S
# Summary of the method: as §1
# [4] = target: Gal3S(b1-4)[Fuc(a1-3)]GlcNAc
# Summary of the method: as §1
# [5] = target: Gal3S(b1-4)[Fuc(a1-3)]GlcNAc6S
# Summary of the method: as §1
# [6] = target: Gal3S4S(b1-4)GlcNAc
# Summary of the method: as §1
# [7] = target: Gal3S6S(b1-4)GlcNAc
# Summary of the method: as §1
# [8] = target: Gal3S6S(b1-4)GlcNAc6S
# Summary of the method: as §1
# [9] = target: Gal4S(b1-4)GlcNAc
# Summary of the method: as §1
# [10] = target: Gal4S6S(b1-4)GlcNAc
# Summary of the method: as §1
# [11] = target: Gal6P(b1-4)GlcNAc
# Summary of the method: as §1
# [12] = target: Gal6S(b1-3)GlcNAc
# Summary of the method: as §1
# [13] = target: Gal6S(b1-3)GlcNAc6S
# Summary of the method: as §1
# [14] = target: Gal6S(b1-4)Glc
# Summary of the method: as §1
# [15] = target: Gal6S(b1-4)Glc6S
# Summary of the method: as §1
# [16] = target: Gal6S(b1-4)GlcNAc
# Summary of the method: as §1
# [17] = target: Gal6S(b1-4)GlcNAc6S
# Summary of the method: as §1
# [18] = target: GalNAc(a1-3)Gal
# Summary of the method: as §1
# [19] = target: GalNAc(a1-3)GalNAc
# Summary of the method: as §1
# [20] = target: GalNAc(a1-3)GalNAc(a1-3)Gal(a1-4)Gal(b1-4)GlcNAc
# Summary of the method: as §1
# [21] = target: GalNAc(a1-3)GalNAc(b1-3)Gal(a1-4)Gal(b1-4)Glc
# Summary of the method: as §1
# [22] = target: GalNAc(b1-3)Gal
# Summary of the method: as §1
# [23] = target: GalNAc(b1-3)Gal(a1-4)Gal(b1-4)GlcNAc
# Summary of the method: as §1
# [24] = target: GalNAc(b1-3)Gal(a1-4)Gal(b1-4)GlcNAc(b1-3)Gal(b1-4)Glc
# Summary of the method: as §1
# [25] = target: GalNAc(b1-3)Gal(a1-6)Gal(b1-4)Glc
# Summary of the method: as §1
# [26] = target: GalNAc(b1-3)GalNAc
# Summary of the method: as §1
# [27] = target: GalNAc(b1-3)GlcNAc
# Summary of the method: as §1
# [28] = target: GalNAc(b1-4)Gal(b1-4)Glc
# Summary of the method: as §1
# [29] = target: GalNAc(b1-4)GlcNAc
# Summary of the method: as §1
# [30] = target: GalNAc(b1-4)GlcNAc(b1-2)Man
# Summary of the method: as §1
# [31] = target: GalNAc(b1-4)GlcNAc(b1-2)Man(a1-3)[GalNAc(b1-4)GlcNAc(b1-2)Man(a1-6)]Man(b1-4)GlcNAc(b1-4)GlcNAc
# Summary of the method: as §1
# [32] = target: GalNAc(b1-4)GlcNAc(b1-3)GalNAc(b1-4)GlcNAc
# Summary of the method: as §1
# [33] = target: GalNAc(b1-4)GlcNAc6S
# Summary of the method: as §1
# [34] = target: GalNAc(b1-6)GalNAc
# Summary of the method: as §1
# [35] = target: GalNAc3S(b1-4)GlcNAc
# Summary of the method: as §1
# [36] = target: GalNAc3S(b1-4)GlcNAc3S
# Summary of the method: as §1
# [37] = target: GalNAc3S(b1-4)[Fuc(a1-3)]GlcNAc
# Summary of the method: as §1
# [38] = target: GalNAc4S6S(b1-4)GlcNAc
# Summary of the method: as §1
# [39] = target: GalNAc6S(b1-4)GlcNAc
# Summary of the method: as §1
# [40] = target: Glc(a1-4)Glc
# Summary of the method: as §1
# [41] = target: Glc(a1-4)Glc(a1-4)Glc(a1-4)Glc
# Summary of the method: as §1
# [42] = target: Glc(a1-6)Glc(a1-6)Glc
# Summary of the method: as §1
# [43] = target: Glc(a1-6)Glc(a1-6)Glc(a1-6)Glc
# Summary of the method: as §1
# [44] = target: Glc(b1-4)Glc
# Summary of the method: as §1
# [45] = target: Glc(b1-6)Glc
# Summary of the method: as §1
# [46] = target: GlcA(b1-3)Gal
# Summary of the method: as §1
# [47] = target: GlcA(b1-3)GlcNAc
# Summary of the method: as §1
# [48] = target: GlcA(b1-6)Gal
# Summary of the method: as §1
# [49] = target: GlcA3S(b1-3)Gal(b1-4)GlcNAc(b1-2)Man
# Summary of the method: as §1
# [50] = target: GlcA3S(b1-3)Gal(b1-4)GlcNAc(b1-3)Gal(b1-4)Glc
# Summary of the method: as §1
# [51] = target: GlcNAc(a1-3)Gal(b1-4)GlcNAc
# Summary of the method: as §1
# [52] = target: GlcNAc(a1-4)Gal(b1-3)GlcNAc
# Summary of the method: as §1
# [53] = target: GlcNAc(a1-4)Gal(b1-4)GalNAc
# Summary of the method: as §1
# [54] = target: GlcNAc(a1-4)Gal(b1-4)GlcNAc
# Summary of the method: as §1
# [55] = target: GlcNAc(a1-4)Gal(b1-4)GlcNAc(b1-3)Gal(b1-4)Glc
# Summary of the method: as §1
# [56] = target: GlcNAc(a1-4)Gal(b1-4)GlcNAc(b1-3)Gal(b1-4)GlcNAc
# Summary of the method: as §1
# [57] = target: GlcNAc(a1-4)Gal(b1-4)GlcNAc(b1-3)Gal(b1-4)GlcNAc(b1-3)Gal(b1-4)GlcNAc
# Summary of the method: as §1
# [58] = target: GlcNAc(a1-4)Gal(b1-4)GlcNAc(b1-3)Gal(b1-4)[Fuc(a1-3)]GlcNAc(b1-3)Gal(b1-4)[Fuc(a1-3)]GlcNAc
# Summary of the method: as §1
# [59] = target: GlcNAc(a1-6)Gal(b1-4)GlcNAc
# Summary of the method: as §1
# [60] = target: GlcNAc(b1-2)Gal(b1-3)GalNAc
# Summary of the method: as §1
binder,measurement,setting,value
B1,glycan array binding signal (z-score),[1],0.627
same,glycan array binding signal (z-score),[2],-0.019
same,glycan array binding signal (z-score),[3],4.3
same,glycan array binding signal (z-score),[4],3.42
same,glycan array binding signal (z-score),[5],0.844
same,glycan array binding signal (z-score),[6],-0.559
same,glycan array binding signal (z-score),[7],2.19
same,glycan array binding signal (z-score),[8],1.8
same,glycan array binding signal (z-score),[9],0.426
same,glycan array binding signal (z-score),[10],2.26
same,glycan array binding signal (z-score),[11],0.616
same,glycan array binding signal (z-score),[12],-0.605
same,glycan array binding signal (z-score),[13],-0.273
same,glycan array binding signal (z-score),[14],-0.046
same,glycan array binding signal (z-score),[15],0.094
same,glycan array binding signal (z-score),[16],-0.307
same,glycan array binding signal (z-score),[17],0.168
same,glycan array binding signal (z-score),[18],-0.61
same,glycan array binding signal (z-score),[19],-1.12
same,glycan array binding signal (z-score),[20],-0.192
same,glycan array binding signal (z-score),[21],-0.247
same,glycan array binding signal (z-score),[22],-0.773
same,glycan array binding signal (z-score),[23],0.521
same,glycan array binding signal (z-score),[24],-0.195
same,glycan array binding signal (z-score),[25],-0.574
same,glycan array binding signal (z-score),[26],0.297
same,glycan array binding signal (z-score),[27],-0.332
same,glycan array binding signal (z-score),[28],-1.33
same,glycan array binding signal (z-score),[29],0.772
same,glycan array binding signal (z-score),[30],0.028
same,glycan array binding signal (z-score),[31],0.115
same,glycan array binding signal (z-score),[32],-0.58
same,glycan array binding signal (z-score),[33],-0.46
same,glycan array binding signal (z-score),[34],0.083
same,glycan array binding signal (z-score),[35],-0.952
same,glycan array binding signal (z-score),[36],-0.895
same,glycan array binding signal (z-score),[37],0.779
same,glycan array binding signal (z-score),[38],-0.816
same,glycan array binding signal (z-score),[39],-0.056
same,glycan array binding signal (z-score),[40],0.537
same,glycan array binding signal (z-score),[41],0.754
same,glycan array binding signal (z-score),[42],-0.5
same,glycan array binding signal (z-score),[43],0.227
same,glycan array binding signal (z-score),[44],-0.894
same,glycan array binding signal (z-score),[45],-0.545
same,glycan array binding signal (z-score),[46],0.951
same,glycan array binding signal (z-score),[47],0.387
same,glycan array binding signal (z-score),[48],-0.583
same,glycan array binding signal (z-score),[49],-0.036
same,glycan array binding signal (z-score),[50],1.17
same,glycan array binding signal (z-score),[51],0.225
same,glycan array binding signal (z-score),[52],-0.967
same,glycan array binding signal (z-score),[53],1.02
same,glycan array binding signal (z-score),[54],-0.439
same,glycan array binding signal (z-score),[55],-1.3
same,glycan array binding signal (z-score),[56],-1.34
same,glycan array binding signal (z-score),[57],-1.03
same,glycan array binding signal (z-score),[58],0.239
same,glycan array binding signal (z-score),[59],0.283
same,glycan array binding signal (z-score),[60],0.117

# Eleven consecutive entries from above, quoted:
binder,measurement,setting,value
B1,glycan array binding signal (z-score),[15],0.094
same,glycan array binding signal (z-score),[16],-0.307
same,glycan array binding signal (z-score),[17],0.168
same,glycan array binding signal (z-score),[18],-0.61
same,glycan array binding signal (z-score),[19],-1.12
same,glycan array binding signal (z-score),[20],-0.192
same,glycan array binding signal (z-score),[21],-0.247
same,glycan array binding signal (z-score),[22],-0.773
same,glycan array binding signal (z-score),[23],0.521
same,glycan array binding signal (z-score),[24],-0.195
same,glycan array binding signal (z-score),[25],-0.574
